Reference: PubChem BioAssay AID248 (DTP/NCI, 2004)
The list does not hold the whole screen: it is rich in T/C values a quarter to a half above the control, in often repeated tests (any T/C) and in doses without a T/C. Other doses and runs of a compound stand elsewhere. T/C: endpoint of the treated group in % of that of the vehicle group. Some doses have a count of surviving animals in place of a T/C: the source holds a T/C of zero for them, seemingly a mark for toxic or unscored doses. Some doses without a T/C left all or most animals alive at the check, yet need not have been tolerated: the source hardly ever lists a survival T/C far under the control, and the zero likely stands for such cases as well. Counts of survivors are from the toxicity check (mostly the fifth day) where no day follows; animals may have died later. Schedule codes are those of the source, taken here to give the interval after Q, in days (D) or hours (H), and the number of doses after X. Some schedule codes hold Z or #, which are not explained here. Some doses were run more than once; their values stand side by side, smallest first. Where survival is the endpoint, the PubChem record calls one and a half times the control and up active, and a quarter to a half above the control has no call in these data; cut-offs in other NCI protocols can differ. Some T/C values carry the count of animals alive at the toxicity check (mostly the fifth day); without a count, all were alive then. Additions like (4×) stand for listed records that agree.

Test system: L1210 leukemia ip in BDF1 mice, survival T/C
Test: NCI In Vivo Anticancer Drug Screen. Data for tumor model L1210 Leukemia (intraperitoneal) in B6D2F1 (BDF1) mice
Conditions: T/C endpoint: mean survival time, higher T/C = longer survival
[1] = dose: 200.0 mg/kg/injection, schedule: Q04DX003 (ip), vehicle: saline
[2] = dose: 400.0 mg/kg/injection, schedule: Q04DX003 (ip), vehicle: saline
[3] = dose: 400.0 mg/kg/injection, schedule: Q01DX001 (ip), vehicle: carboxymethylcellulose (CMC)
[4] = dose: 200.0 mg/kg/injection, schedule: Q01DX001 (ip), vehicle: saline
[5] = dose: 400.0 mg/kg/injection, schedule: Q01DX001 (ip), vehicle: saline
[6] = dose: 100.0 mg/kg/injection, schedule: Q04DX003 (ip), vehicle: Klucel (hydroxypropylcellulose) (HPC)
[7] = dose: 200.0 mg/kg/injection, schedule: Q04DX003 (ip), vehicle: Klucel (hydroxypropylcellulose) (HPC)
[8] = dose: 400.0 mg/kg/injection, schedule: Q04DX003 (ip), vehicle: Klucel (hydroxypropylcellulose) (HPC)
[9] = dose: 300.0 mg/kg/injection, schedule: Q01DX001 (ip), vehicle: other
[10] = dose: 200.0 mg/kg/injection, schedule: Q01DX009 (ip), vehicle: saline with Tween-80

## NC1CC(N)CC(N)C1 (configuration not stated)
[1]
  survivor count: 5 of 6
[2]
  survivor count: 0 of 6

## Nc1ncnc2nncnc12
dose: 200.0 mg/kg/injection, schedule: Q01DX001 (ip), vehicle: carboxymethylcellulose (CMC)
  survivor count: 0 of 4
[3]
  survivor count: 0 of 4

## O=C(C[n+]1cccc(CO)c1)c1ccc(-c2ccc(C(=O)C[n+]3cccc(CO)c3)cc2)cc1
dose: 100.0 mg/kg/injection, schedule: Q01DX001 (ip), vehicle: saline
  survivor count: 0 of 6
[4]
  survivor count: 0 of 6
[5]
  survivor count: 0 of 6

## NC1=NC(=S)C2N=C(N=Nc3ccc(C(=O)NC(CCC(=O)O)C(=O)O)cc3)N=C2N1 (configuration not stated)
dose: 0.78 mg/kg/injection, schedule: Q01DX009 (ip), vehicle: Klucel (hydroxypropylcellulose) (HPC)
  T/C: 132 % of control [4 of 6 alive]
dose: 3.13 mg/kg/injection, schedule: Q01DX009 (ip), vehicle: Klucel (hydroxypropylcellulose) (HPC)
  T/C: 134 and 149 % of control
dose: 6.25 mg/kg/injection, schedule: Q01DX009 (ip), vehicle: Klucel (hydroxypropylcellulose) (HPC)
  T/C: 140 % of control
dose: 25.0 mg/kg/injection, schedule: Q04DX003 (ip), vehicle: Klucel (hydroxypropylcellulose) (HPC)
  T/C: 132 and 148 % of control
dose: 50.0 mg/kg/injection, schedule: Q04DX003 (ip), vehicle: Klucel (hydroxypropylcellulose) (HPC)
  T/C: 144 % of control
[6]
  T/C: 130 % of control
  survivor count: 2 of 6
[7]
  survivor count: 1 of 6
[8]
  survivor count: 0 of 6

## O=C(Cc1ccc(CC(=O)NO)cc1)NO
dose: 300.0 mg/kg/injection, schedule: Q01DX001 (ip), vehicle: saline
  survivor count: 3 of 6

## CCCCCCCCCCCCSC1CC(=O)N(c2ccccc2)C1=O (configuration not stated)
dose: 100.0 mg/kg/injection, schedule: Q01DX001 (ip), vehicle: other
  T/C: 86, 90, 94 (2×), 100 % of control
dose: 200.0 mg/kg/injection, schedule: Q01DX001 (ip), vehicle: other
  T/C: 87, 93, 94, 96, 121 % of control
dose: 400.0 mg/kg/injection, schedule: Q01DX001 (ip), vehicle: other
  T/C: 87, 91, 91 [2 of 3 alive], 98 % of control

## O=C1NC(=O)C([N+](=O)[O-])=C(O)C1=O
[2]
  survivor count: 1 of 6

## O=C(NCCCl)Nc1ccncc1
dose: 5.0 mg/kg/injection, schedule: Q01DX009 (ip), vehicle: Klucel (hydroxypropylcellulose) (HPC)
  survivor count: 0 of 6
dose: 10.0 mg/kg/injection, schedule: Q04DX003 (ip), vehicle: Klucel (hydroxypropylcellulose) (HPC)
  survivor count: 3 of 6
dose: 20.0 mg/kg/injection, schedule: Q04DX003 (ip), vehicle: Klucel (hydroxypropylcellulose) (HPC)
  survivor count: 1 of 6
dose: 40.0 mg/kg/injection, schedule: Q04DX003 (ip), vehicle: Klucel (hydroxypropylcellulose) (HPC)
  survivor count: 0 of 6
dose: 80.0 mg/kg/injection, schedule: Q04DX003 (ip), vehicle: Klucel (hydroxypropylcellulose) (HPC)
  survivor count: 0 of 6
[6]
  survivor count: 0 of 6
[7]
  survivor count: 0 of 6
[8]
  survivor count: 0 of 6

## O=C(Nc1ccc(NC(=O)Nc2cc(C(=O)Nc3ccc(C4=NCCN4)cc3)ccc2C(=O)Nc2ccc(C3=NCCN3)cc2)cc1)Nc1cc(C(=O)Nc2ccc(C3=NCCN3)cc2)ccc1C(=O)Nc1ccc(C2=NCCN2)cc1
dose: 180.0 mg/kg/injection, schedule: Q01DX Z (ip), vehicle: saline
  T/C: 131 % of control
dose: 270.0 mg/kg/injection, schedule: Q01DX Z (ip), vehicle: saline
  T/C: 146 % of control

## ClC1=C(Cl)C(Cl)(Cl)SS1
dose: 150.0 mg/kg/injection, schedule: Q01DX001 (ip), vehicle: other
  survivor count: 1 of 6
[9]
  survivor count: 1 of 6

## O=C1c2ccccc2C[CH]1[Hg][Cl] (configuration not stated)
dose: 20.0 mg/kg/injection, schedule: Q01DX001 (ip), vehicle: saline
  survivor count: 1 of 6
dose: 40.0 mg/kg/injection, schedule: Q01DX001 (ip), vehicle: saline
  survivor count: 0 of 6
dose: 80.0 mg/kg/injection, schedule: Q01DX001 (ip), vehicle: saline
  survivor count: 0 of 6

## Clc1ccc2scc3c4ccccc4nc-3c2c1
dose: 200.0 mg/kg/injection, schedule: Q04DX003 (ip), vehicle: acetone
  survivor count: 3 of 6
dose: 400.0 mg/kg/injection, schedule: Q04DX003 (ip), vehicle: acetone
  survivor count: 0 of 6

## CC(=O)c1cc(C(C)=O)c2cc(C)cc(O)c2c1O
[4]
  survivor count: 0 of 6
[5]
  survivor count: 0 of 6

## OC(c1ccc(OCc2ccccc2)cc1)c1nccc2ccccc12 (configuration not stated)
dose: 200.0 mg/kg/injection, schedule: Q01DX001 (ip), vehicle: acetone
  survivor count: 6 of 6
dose: 400.0 mg/kg/injection, schedule: Q01DX001 (ip), vehicle: acetone
  survivor count: 6 of 6

## COc1cccc(CCN)c1
[5]
  survivor count: 1 of 4

## C=CCCC(=O)OC(C)(C)C
dose: 400.0 mg/kg/injection, schedule: Q01DX009 (ip), vehicle: water
  survivor count: 0 of 6

## CCCN=Cc1ccccc1O.CCCN=Cc1ccccc1O.[Ni]
[9]
  survivor count: 1 of 6

## O=C(/C=C/c1ccccc1)N1CCCCC1
dose: 400.0 mg/kg/injection, schedule: Q04DX002 (ip), vehicle: Klucel (hydroxypropylcellulose) (HPC)
  survivor count: 3 of 3

## CSc1nc(Cl)cc(Sc2nc(N)nc3nc[nH]c23)n1
dose: 200.0 mg/kg/injection, schedule: Q01DX Z (ip), vehicle: methylcellulose (MC)
  survivor count: 5 of 6

## COc1cc2c(cc1[N+](=O)[O-])C(=O)CCCC2
[10]
  survivor count: 3 of 3

## O=C(Nc1cccc(C2=NCCN2)c1)c1ccc(C(=O)Nc2cccc(C3=NCCN3)c2)cc1
dose: 10.0 mg/kg/injection, schedule: Q01DX Z (ip), vehicle: saline
  survivor count: 1 of 6
dose: 15.0 mg/kg/injection, schedule: Q01DX Z (ip), vehicle: methylcellulose (MC)
  survivor count: 0 of 6
dose: 30.0 mg/kg/injection, schedule: Q01DX Z (ip), vehicle: methylcellulose (MC)
  survivor count: 0 of 6
dose: 60.0 mg/kg/injection, schedule: Q01DX Z (ip), vehicle: methylcellulose (MC)
  survivor count: 0 of 6

## O=S1(=O)C=C(Cl)C(Cl)C1 (configuration not stated)
dose: 100.0 mg/kg/injection, schedule: Q01DX009 (ip), vehicle: saline
  survivor count: 5 of 6
[1]
  survivor count: 1 of 6
[5]
  survivor count: 2 of 6

## CCCCC(CC)COc1ccc(N=C(N)N=C(N)N)cc1 (configuration not stated)
dose: 200.0 mg/kg/injection, schedule: Q04DX002 (ip), vehicle: saline with Tween-80
  survivor count: 1 of 3
dose: 400.0 mg/kg/injection, schedule: Q04DX002 (ip), vehicle: saline with Tween-80
  survivor count: 0 of 3

## C=CCn1c2ccccc2c2c(C)c3cnccc3c(C)c21
dose: 18.7 mg/kg/injection, schedule: Q01DX009 (ip), vehicle: saline with Tween-80
  T/C: 128 % of control
dose: 37.5 mg/kg/injection, schedule: Q01DX009 (ip), vehicle: saline with Tween-80
  T/C: 145 % of control
dose: 75.0 mg/kg/injection, schedule: Q04DX003 (ip), vehicle: saline with Tween-80
  T/C: 135 % of control
dose: 150.0 mg/kg/injection, schedule: Q04DX003 (ip), vehicle: saline
  T/C: 128 % of control
[10]
  survivor count: 3 of 6

## CC(=O)CC(=O)Nc1cc(Cl)ccc1C
dose: 100.0 mg/kg/injection, schedule: Q01DX009 (ip), vehicle: Klucel (hydroxypropylcellulose) (HPC)
  survivor count: 5 of 6
dose: 400.0 mg/kg/injection, schedule: Q01DX009 (ip), vehicle: Klucel (hydroxypropylcellulose) (HPC)
  survivor count: 4 of 6

## CC(=Nc1ccccc1)C1=C(O)C(Cc2ccccc2)NC1=O (configuration not stated)
[3]
  T/C: 134 % of control [3 of 4 alive]
dose: 600.0 mg/kg/injection, schedule: Q01DX001 (ip), vehicle: carboxymethylcellulose (CMC)
  survivor count: 1 of 4 and 2 of 4

## Nc1ccc(S(=O)(=O)c2ccc(NCC(=O)O)cc2)cc1
dose: 400.0 mg/kg/injection, schedule: Q04DX003 (ip), vehicle: saline with Tween-80
  survivor count: 5 of 6
